From article PMC5792641 come the findings set out here.

Assay [1] has as its target calaxin (Ciona intestinalis) (UniProt Q8T893). In words: SAXS; Mg2+-bound calaxin in solution, 0.25, 0.5, 1.0 and 2.0 mg/mL, 20 mM Tris-HCl (pH 8.0), 150 mM NaCl, 1 mM DTT, 10 mM MgCl2, 25 °C; Guinier analysis, molecular weight from I(0) with BSA as standard; both purified.
For assay [2] the target is unchanged. In words: SAXS; Ca2+-bound calaxin in solution, 0.25, 0.5, 1.0 and 1.75 mg/mL, 20 mM Tris-HCl (pH 8.0), 150 mM NaCl, 1 mM DTT, 10 mM CaCl2, 25 °C; Guinier analysis, molecular weight from I(0) with BSA as standard; both purified.

Results are given in words; binding and its absence hold for the method and conditions named.

B1: calaxin (protein, UniProt Q8T893 1-203)
chain: MSKKNQKLAEELYKTSCQKHFTKTEVESLIICYKNLLEGLKMDRNLFRDILHQKFNMTEDLLMDRVFRAFDKDSDSYISLTEWVEGLSVFLRGTLDEKMEYTFTVFDLNGDGYISREEMFQMLKTCLVKQPTEEDPDEGIKDLVEIALKKMDHDHDSRLSKKDFKDAVLIEPLLLEAFGKCLPDEKSSEIFEYHVLGVKQCRG
Turning to B1, the binding result was “no binding (tested: 0.25, 0.5, 1.0 and 2.0 mg mL^-1)” in assay [1]; “no binding (tested: 0.25, 0.5, 1.0 and 1.75 mg/mL)” in assay [2].
